# Screen size: about 320,000 compounds; about 2,100 (0.66%) were called active. This list was built around the results that the source calls inconclusive (neither active nor inactive); the mix of calls is not that of the screen. Calls follow the shape of the dose curve; as a rule, active = well fitted inhibition curve with a large enough effect in the signal ratio, with a control signal flat (not every such curve was filed as active); inconclusive = small, poorly fitted or top-dose-only effect, or effect the other way, or a change in a side signal; inactive = flat fitted curve, though single readings scatter; the % refers to the signal ratio. Potencies of inconclusive entries are doubtful fits and often do not repeat.
# Assay: qHTS Assay for Lipid Storage Modulators in Drosophila S3 Cells
# Details: BODIPY lipid droplet fluorescence, 18-24 h, cells fed with added oleic acid; lipid storage change, negative = inhibition: at 46.1 µM (top of the series) unless noted
# Outline: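 Drosophila S3 cells got compounds at several concentrations plus oleic acid (400 uM solution). Laser-scanning cytometry with 488 nm excitation read lipid droplets at 500-530 nm and cells at 575-640 nm. Percent activity was relative to 20 uM Triacsin C.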
# % is scaled to controls: 0 for no effect and ±100 for the full control effect; potency is read from the fitted curve at half-maximal effect.
SMILES,"lipid storage change, negative = inhibition",Potency
COc1ccc(N(CC(=O)Nc2ccccc2C(=O)NCC(C)C)S(C)(=O)=O)cc1,inconclusive: 15.8%,–
CCCCC(=O)Nc1ccc2c(c1)C(=O)NC2=O,inconclusive: -11.1%,–
COc1ccc2c(c1)C(=O)N(c1ccc(C)cc1)C(=O)C2,inactive: -3.58%,–
COc1ccccc1CNC(=O)COC(=O)c1cccc(S(=O)(=O)N2CCOCC2)c1,inconclusive: -20.8%,–
CCOc1ccc(S(=O)(=O)NCC(=O)OCc2nnc(-c3ccccc3)o2)cc1,inconclusive: 14.7%,–
O=C1CSC(c2ccccc2F)N1c1cc(Cl)ccc1O (configuration not stated),–,"inconclusive: 29.1 µM [rising, single point]"
O=[N+]([O-])c1cccc(-c2ccc(/C=N/n3c(-c4ccccc4)n[nH]c3=S)o2)c1,–,"inconclusive: 4.11 µM [falling, full curve]"
O=C(CCc1nnc(CCCc2ccccc2)o1)NCCCC1CCCC1,–,"inconclusive: 23.1 µM [falling, single point]"
COc1ccc(NC(=O)CN(C)C(=O)c2ccc(S(=O)(=O)Nc3ccccc3F)cc2)cc1,inconclusive: 27.3%,–
COc1ccc(S(=O)(=O)N2CCOC2CNC(=O)C(=O)NCCc2ccccc2)cc1 (configuration not stated),inconclusive: -37.5%,–
O=C(c1ccc(N2C(=O)C3CC=C(Cl)CC3C2=O)cc1)N1CCOCC1 (configuration not stated),inactive: -4.16%,–
Cc1ccc(NC(=O)/C(=C\c2cccnc2)NC(=O)c2ccco2)cc1,inconclusive: 302%,–
Cc1cc(C)cc(-n2nnc(C(=O)NCc3ccco3)c2N)c1,inconclusive: -13%,–
N/C(=N\OC(=O)c1cccs1)c1cccc(Br)c1,inconclusive: 16.7%,–
C/C(=N\Nc1cc(N2CCOCC2)ncn1)c1ccccc1,–,"inconclusive: 0.461 µM [activator, partial curve, poor fit]"
Cc1ccccc1C(=O)NCC(=O)OC1CCCCC1=O (configuration not stated),inconclusive: -2.88%,–
CC(C)(C)C1CCC(=NNC(=O)c2cc(-c3ccccc3)n[nH]2)CC1 (configuration not stated),inconclusive: 22.5%,–
O=C1S/C(=C\c2ccc(O)c([N+](=O)[O-])c2)C(=O)N1Cc1cccc([N+](=O)[O-])c1,inconclusive: 22.9%,–
CCOC(=O)Cn1cc(C(=O)C2CC2)c2ccccc21,inconclusive: 16.9%,–
CC(=O)N1N=C(c2ccccc2)OC1c1ccc([N+](=O)[O-])s1 (configuration not stated),–,"inconclusive: 29.1 µM [cytotoxic, single point]"
COc1ccc(OCC(=O)NNC(=S)NC(=O)c2ccc([N+](=O)[O-])cc2)cc1,inconclusive: 48.7%,–
COc1ccc(C2=NN(C(=O)COC(=O)c3ccc(NC(=O)CC#N)cc3)C(c3ccco3)C2)cc1 (configuration not stated),inconclusive: 11.4%,–

# Among those listed so far, these have an NH in an aromatic ring:
SMILES,"lipid storage change, negative = inhibition",Potency
O=[N+]([O-])c1cccc(-c2ccc(/C=N/n3c(-c4ccccc4)n[nH]c3=S)o2)c1,–,"inconclusive: 4.11 µM [falling, full curve]"
CC(C)(C)C1CCC(=NNC(=O)c2cc(-c3ccccc3)n[nH]2)CC1 (configuration not stated),inconclusive: 22.5%,–
